The target of assay [1] is matrix metalloprotease-2 (MMP-2), activated (UniProt P08253). Nature of the assay: peptide cleavage kinetics by HPLC.
Assay [2] deals with matrix metalloprotease-9 (MMP-9), activated (UniProt P14780). Nature of the assay: peptide cleavage kinetics by HPLC.

Sequences of proteins named here, by UniProt entry; tags and fusion partners are left off. Residues count along the entry.
UniProt P08253, residues 110-660: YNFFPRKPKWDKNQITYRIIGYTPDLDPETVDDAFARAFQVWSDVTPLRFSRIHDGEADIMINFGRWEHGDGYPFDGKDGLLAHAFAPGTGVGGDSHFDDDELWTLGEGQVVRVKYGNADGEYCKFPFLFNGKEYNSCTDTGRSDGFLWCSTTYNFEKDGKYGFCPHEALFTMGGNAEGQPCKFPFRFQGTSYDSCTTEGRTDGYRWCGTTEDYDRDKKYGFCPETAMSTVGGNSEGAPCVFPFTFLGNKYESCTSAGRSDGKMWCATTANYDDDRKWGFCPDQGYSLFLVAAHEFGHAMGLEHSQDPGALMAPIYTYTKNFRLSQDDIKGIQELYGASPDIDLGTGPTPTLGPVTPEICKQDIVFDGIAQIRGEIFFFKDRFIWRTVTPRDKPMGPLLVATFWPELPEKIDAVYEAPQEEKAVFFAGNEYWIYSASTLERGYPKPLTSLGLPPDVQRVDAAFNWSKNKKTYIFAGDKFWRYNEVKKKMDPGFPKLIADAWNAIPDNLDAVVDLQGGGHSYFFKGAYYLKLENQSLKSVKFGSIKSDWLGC
UniProt P14780, residues 107-707: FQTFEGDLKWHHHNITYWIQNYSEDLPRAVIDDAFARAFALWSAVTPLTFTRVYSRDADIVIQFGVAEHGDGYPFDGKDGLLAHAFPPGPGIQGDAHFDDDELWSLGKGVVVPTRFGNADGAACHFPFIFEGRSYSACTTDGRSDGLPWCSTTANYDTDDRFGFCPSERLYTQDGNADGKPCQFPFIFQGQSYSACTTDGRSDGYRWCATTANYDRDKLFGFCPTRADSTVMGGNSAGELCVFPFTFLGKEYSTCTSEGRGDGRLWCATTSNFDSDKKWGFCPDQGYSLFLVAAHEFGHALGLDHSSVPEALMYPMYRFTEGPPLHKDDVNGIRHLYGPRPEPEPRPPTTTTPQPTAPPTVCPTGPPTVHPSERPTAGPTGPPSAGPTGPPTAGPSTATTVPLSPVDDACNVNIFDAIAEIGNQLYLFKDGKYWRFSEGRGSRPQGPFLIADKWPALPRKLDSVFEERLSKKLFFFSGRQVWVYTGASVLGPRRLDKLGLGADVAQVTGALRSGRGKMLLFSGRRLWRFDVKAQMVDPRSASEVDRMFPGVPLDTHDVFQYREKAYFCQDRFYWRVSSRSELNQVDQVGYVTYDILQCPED

These are yes or no findings as the source states them, for the method shown. Some entries that bind do so weakly or less than the wild type.

Turning to KPAGLLGC (fluorescein containing lysine (Lys*) at position 1) [Lys*-Pro-Ala-Gly-Leu-Leu-Gly-Cys (SEQ ID NO:2)], the binding entry in assay [1] and in assay [2] was “binds” each time.

Values taken from patent US20080131510A1.
